Numbering of substitutions follows the chain as printed. Construct, isoform or probe ends are uncertain for at least one entry. Where a protein sequence is shown, tags need not be part of it.

Holding throughout (test): enzyme reaction in vitro
Data set [1] deals with T1, RNase H2 G12A (Pyrococcus abyssi) (UniProt Q9V1A9).
T1 sequence: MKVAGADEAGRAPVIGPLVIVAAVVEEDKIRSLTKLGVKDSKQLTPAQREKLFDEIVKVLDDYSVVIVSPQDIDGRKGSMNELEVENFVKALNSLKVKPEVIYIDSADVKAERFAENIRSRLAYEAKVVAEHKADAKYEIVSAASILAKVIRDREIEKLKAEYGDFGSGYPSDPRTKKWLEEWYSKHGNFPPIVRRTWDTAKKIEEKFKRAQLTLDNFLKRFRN
To be noted: 3' C3 spacer, rhPCR, 10 mU column, purified recombinant protein, protein details: 6xHis.

Data set [2] deals with T2, RNase H2 G169A (Pyrococcus abyssi) (UniProt Q9V1A9).
T2 sequence: T1 sequence with A12G, G169A
To be noted: 3' C3 spacer, rhPCR, 10 mU column, purified recombinant protein, protein details: 6xHis.

Data set [3] deals with T3, RNase H2 WT (Pyrococcus abyssi) (UniProt Q9V1A9).
T3 sequence: T1 sequence with A12G
To be noted: 3' C3 spacer, rhPCR, 10 mU column, purified recombinant protein.

Data set [4] has as its target T4, RNase H2 P13T (Pyrococcus abyssi) (UniProt Q9V1A9).
T4 sequence: T1 sequence with A12G, P13T
To be noted: 3' C3 spacer, rhPCR, 10 mU column, purified recombinant protein, protein details: 6xHis.

Consider “GTGATTTTGGTCTAGCTACAGAAAAA [rs113488022 rGA 4dmx rhPrimer]”, for which the activity on this sequence in data set [1] (single RNA residue rG, T 75.6, A 48.2) was found to be 27.4 delta Cq; in data set [2] (single RNA residue rG, T 43.2, A 26.4, WT 14.2, text cites SEQ 206/207 but table labels rGA) it was 16.8 delta Cq; in data set [3] (single RNA residue rG, T 33.3, A 26.0, SEQ 211 printed identical to 210, protein details: …), 7.3 delta Cq; in data set [4] (single RNA residue rG, T 42.0, A 27.0), 15 delta Cq.
As for “GTGATTTTGGTCTAGCTACAGTAAAA [rs113488022 rGT 4dmx rhPrimer]”, the activity on this sequence in data set [1] (single RNA residue rG (GTGATTTTGGTCTAGCTACArGTAAAA-x), T 55.7, A 66.8) was 11.1 delta Cq; in data set [2] (single RNA residue rG (GTGATTTTGGTCTAGCTACArGTAAAA-x), T 29.2, A 39.3, WT 0.0, text cites SEQ 206/207 but table labels rGT) it was 10.1 delta Cq; in data set [3] (single RNA residue rG (GTGATTTTGGTCTAGCTACArGTAAAA-x), T 26.4, A 26.5, mismatch 3' of RNA, protein details: 6xHis) it was 0.2 delta Cq; in data set [4] (single RNA residue rG (GTGATTTTGGTCTAGCTACArGTAAAA-x), T 31.7, A 37.3) it was 5.6 delta Cq.
